The record followed here is article doi:10.1101/2020.03.02.973057.

No constants are given. Whether binding was seen depends on the method and setting. For part of these data: A result given as binding can be weak or reduced; the word gives no strength. Sequences can lack the tags named with a protein. For part of these data: Binding seen in cells or lysates may run through a third protein.

The target of assay [1] is ZC3H20 with a HHYNPY -> HYNAA mutation, myc-tagged (Trypanosoma brucei) (UniProt Q57XK8). Nature of the assay: co-IP.
The target in assay [2] is ZC3H21-myc (Trypanosoma brucei) (UniProt Q57Y77). Nature of the assay: co-IP.
Assay [3] concerns the target EIF4E6-PTP (Trypanosoma brucei) (UniProt Q57V43). Nature of the assay: co-IP.
The target in assay [4] is EIF4E6, yeast two-hybrid fusion (Trypanosoma brucei) (UniProt Q57V43). Nature of the assay: two-hybrid.
The target of assay [5] is EIF4G5, yeast two-hybrid fusion (Trypanosoma brucei) (UniProt Q57VY5). Nature of the assay: two-hybrid.
In assay [6] the target is MKT1LΔN, yeast two-hybrid fusion (Trypanosoma brucei). Nature of the assay: two-hybrid.

B1: V5-MKT1L (protein, UniProt Q38C92 1-1220)
chain: MRKAGANRNNERQGRNLGQQGPQMSPPGPSMMYPHHHQHQHHHQHQHQHQHQHQHPHQHPHQHHHHHPHHNGVYGNAYDNIRQPQMPPHSFGQGVSGSPWNSPPQQTPMYNQGYNQMSPGTGGGYGDMGGMYRDVHGGQYPSSPSHMGGGANIPYGRNPAMHNGLPAGAPLPGGYGALPHQGAHTPMGFGRGGQPLMEHMQPSGMYGAPMMRHDGYPDTRVSPPAQVGYGAGAPVGPPPPPPMPAGPPYGGVLPGAGVGPGGPMNASRPPAGIGGGGGGGGNAGYLEMRARGMGPQMPASNASRPPRIGTPDPGMMPPNRMNQSPMMGQGLPPQVGNFMPLPGVSPSPHAMIPTTPSMGDTFPGDDANMSGSTEALYDFLHDRGLVSVDNISKFFPEGYGKDDPALKVAVDGNFCLTSLRDELRKRDSLWFLHSTLPEELLMLVQQHVEWMRNMKLEPIWVFNGLSVSGDVETFLTTEAELRARDAVWSKLEDGEIPDEVEIQEAFDQPLGEDVQMAVARYLKEELGVMAVTAPFLNWAQMVAFHKEGIADLLMGPPEMLLLPYDEMKVIVQIDVSNSSVNYLDRDRVLRALFPNHVTETNTRVAGDRLMDLGLITATHAALSSARVTLNLSMQEVYEELSTPTPKFRSIKDFINAHACSQETGKKAGLSIKHSKGRGYLRYSAVFSTKSRDTPLVYLVRVLDPDLTNADMPTNLAGVLGHLVPLSLFYMQFSGLLSVRIMTAITQSYLRDECPVSDTKDYHTTLGLLMTMRSQVIGQILKRIAHPPPIKRTECLSWVRWFQPILAPMDRPRDLIDLDEWEISDSDQLKKLDEDCLADYSIASVLSVTADASRPAVEESNRPAGRVPIRYNSKRETFLAILLKSFDFLGYFSHSTAPNDAVDGMEMECCGMDGHDRGGSVPAAYHEKDLSSMKRSEASDINFMADEGLKDYPSVYFPIYLRATIKANPLDVQASFVLLTELVRVRIINSNPCRYINPANQQVEISMDDQDTNSDSRVLLASRIACLVKLPYRRASENLPFVWAPVYSRHLCAFTVMVRAMCRCLRELVEVITSTVFLSGNSSCSLQDFAEFASILPFGDVPSTIGGLLLHYVLVFPSDYQANLTSREERIEYLQGKFRDIPDLADHLHLVMSFTLQALYLINAYMLNDKETIVAKDQLTGTIVEDTIEMMWQKWRDHIDDNPPGDIHNLYPPRHQEPIPH
Turning to B1, the binding entry in assay [1], in assay [2] and in assay [3] was “no binding” throughout.

B2: MKT1L full length, yeast two-hybrid fusion (protein, UniProt Q38C92 1-1220)
chain: MRKAGANRNNERQGRNLGQQGPQMSPPGPSMMYPHHHQHQHHHQHQHQHQHQHQHPHQHPHQHHHHHPHHNGVYGNAYDNIRQPQMPPHSFGQGVSGSPWNSPPQQTPMYNQGYNQMSPGTGGGYGDMGGMYRDVHGGQYPSSPSHMGGGANIPYGRNPAMHNGLPAGAPLPGGYGALPHQGAHTPMGFGRGGQPLMEHMQPSGMYGAPMMRHDGYPDTRVSPPAQVGYGAGAPVGPPPPPPMPAGPPYGGVLPGAGVGPGGPMNASRPPAGIGGGGGGGGNAGYLEMRARGMGPQMPASNASRPPRIGTPDPGMMPPNRMNQSPMMGQGLPPQVGNFMPLPGVSPSPHAMIPTTPSMGDTFPGDDANMSGSTEALYDFLHDRGLVSVDNISKFFPEGYGKDDPALKVAVDGNFCLTSLRDELRKRDSLWFLHSTLPEELLMLVQQHVEWMRNMKLEPIWVFNGLSVSGDVETFLTTEAELRARDAVWSKLEDGEIPDEVEIQEAFDQPLGEDVQMAVARYLKEELGVMAVTAPFLNWAQMVAFHKEGIADLLMGPPEMLLLPYDEMKVIVQIDVSNSSVNYLDRDRVLRALFPNHVTETNTRVAGDRLMDLGLITATHAALSSARVTLNLSMQEVYEELSTPTPKFRSIKDFINAHACSQETGKKAGLSIKHSKGRGYLRYSAVFSTKSRDTPLVYLVRVLDPDLTNADMPTNLAGVLGHLVPLSLFYMQFSGLLSVRIMTAITQSYLRDECPVSDTKDYHTTLGLLMTMRSQVIGQILKRIAHPPPIKRTECLSWVRWFQPILAPMDRPRDLIDLDEWEISDSDQLKKLDEDCLADYSIASVLSVTADASRPAVEESNRPAGRVPIRYNSKRETFLAILLKSFDFLGYFSHSTAPNDAVDGMEMECCGMDGHDRGGSVPAAYHEKDLSSMKRSEASDINFMADEGLKDYPSVYFPIYLRATIKANPLDVQASFVLLTELVRVRIINSNPCRYINPANQQVEISMDDQDTNSDSRVLLASRIACLVKLPYRRASENLPFVWAPVYSRHLCAFTVMVRAMCRCLRELVEVITSTVFLSGNSSCSLQDFAEFASILPFGDVPSTIGGLLLHYVLVFPSDYQANLTSREERIEYLQGKFRDIPDLADHLHLVMSFTLQALYLINAYMLNDKETIVAKDQLTGTIVEDTIEMMWQKWRDHIDDNPPGDIHNLYPPRHQEPIPH
B2: the binding result in assay [4] and in assay [5] was “no binding” throughout.

B3: V5-MKT1 (protein, UniProt Q587E3 1-735)
chain: MYPRHDDVSLFQRFVNDHKLEEKGLPLYQLAQLEGTDQVMLGVDGTKIIDMITQAVREREKMAIYTYTTPYTVYEKINEFRTMFQSIKNCTPVFVFNGIQYSPDSAEEFGREKNVVPSEVAALTGTDSSRLSNTTNVRFAEIHKKTANRFVVEEDVEGQIIRIFRSEFKNTIRAPYLAWAQLSSFRHCNHRHISEVYGCLELLAFPGIDRVVTNINPTRGTFDVVYKARVLEAARLSEEDLSSLILVESRSRVMRTVTLKFSSLEDMIKKVVRYKGSTIGASFAQQLHEEAIRASEANRMRASNQRGAAFRNLSAFASPVLTLTPPHCLPLHFLYGIPGFPHADAESFVGLPLPPVLYYIMSAGLLSPSLFAAVSQETVVDDWPLVDSIKYRDVAETVLPLRVQTIYQLAWTMSRGLGSISWFRRYNVLPARVSKLHVPPAIQLDGWALHSVTVPRGLHLVDVMEFAHLACSVDQVIYNTMEETYAAILLQSLDLLGYLTHETQDLHEEGQSSEPSTFGRALQLCSVPTLSEYTVLLIELARTNAISTEPFRITTEEVSPRDTPRDIVFASRVLSIIPLNVSGPWTAPIDAELAAFSMLSRMISRSIRQLLEAITTLMFSKGRTHVPLHRIGEIQRLLPFSTPVEFGCGVLVEYMLMKDKCTLKDLEEAFPECTYLRHDLATLFYFWDLAVQVLQRIETKENFCVDQHCLSSANERMKRAQKNLNILTGVRETYY
Consider B3, for which the binding entry was “no binding” in assay [1] and “binds weakly” in assay [2].

B4: ZC3H11, yeast two-hybrid fusion (protein, UniProt Q57W26 1-364)
chain: MSTATSAPVVESMSDTVVCPQLSRHSTSLEELYTIGYNRSHSPSCFSSAGCEEEEGQKNVLAERYKTKLCKNFVQYGTCPYDIRCMFAHGEEELRTAEMNIMDGLVTKDAITSFQKLWHRAVSASSGSKHHSSHVANRRGVMTTATTTTTAGGSTDAAMHICRRMQRVVAAAAAAVPCGGRRVVSGSIRIRGCVRHNPYCHNILPTVSRYYSTMPDVFTRPYSKSDSCGNEAITEGNAWTYANEEGNEKETPAMISSGVPELTAWKRFNYVAERSQCTSVPEQNLPCADFAAIKESNNTGGNASGVDVENVDDAEHSTCSSVGNESGYFCRASRSASCGEQSQSHLKREGNEGRGEGLHMFLSL
As for B4, the binding entry in assay [6] was “no binding”.

B5: PBP1, yeast two-hybrid fusion (protein, UniProt Q57UZ7 1-550)
chain: MEGSHSSNMERLEYLYLNLVGQVVQVRLVDDMCVEGLFVACTDVDAETDAGIMICCTRNLASAKRSPLSPSCVNFTDDLFIPYQSIVMIEVQNAKIRTETPGRPDTGRADFSATKFDWADDGVSELLESEPHQTGTWNQFEANEKSFGVKTTYKEEFYTTRLDHSKITEEQRAQADRLAREIESSSTRGIAHRMEREECLHDDEGLDEGQLYSDVHRPQEKKPPYVPPSTGGRKLVNEPPPVPAAAAPATAPTTAPAAAPAPAAAPPAAAPAAAAPPPPPAATSMADDGSMRHKRMNEDPHHMQYDANQTAAGFNPAAAPYTPMKPGAAVPVVDFLASLADAISNNDMCYDCEPHWPGMCNLFYDQDDSSYSQQNYEAAAMPPSHSMNMHMYVNSQPNIPNAHRGYQGPLGRVPHNQSMPMHHMQGQGFHHEMHHHQAFHGMGNYSSQHHNPPIQEYAPHKGQQGVVSRPGMRQGKGGGASRVEPQQPVSANTASSPPPVPTVDSAPNEVKPPAKLQRGRGMAAFTKGDMDGDSGATTNATGGPKKRVGK
As to B5, in assay [6], the binding result is listed as “binds”.
